# PubChem BioAssay AID602196, INSERM, 2012
# Aim: 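Knock-downs that protect lung cancer cells from cisplatin or sensitise them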
# Cells: human A549 lung cancer cells
# Reagents: siRNA pair against human genes
# Time to read-out: 48 h transfection before cisplatin; time from cisplatin to read-out not stated
# Challenge: cisplatin at a dose killing half of control-siRNA cells; exact dose and duration not given
# Measurement: 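Shift in cisplatin death relative to control siRNA, from -50 (all cells die) to +50 (no cells die); siRNAs harmful on their own scored 0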
# Reading the numbers: two-siRNA summed score (-2 to +2): higher = both siRNAs protect from cisplatin killing; -2 means both sensitise; mean protection from cisplatin (shift in death) and protection from cisplatin (shift in death), siRNA C and protection from cisplatin (shift in death), siRNA D: higher = protection from cisplatin killing
# Rule for the call: 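siRNAs harmful alone (LDH or WST-1) get 0; others get +1 for less and -1 for more cisplatin killing; genes are active when the two siRNAs give the same sign, summing to ±2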
# Meaning of the calls: active = both siRNAs shift cisplatin killing the same way; inactive = no consistent shift, or siRNA harmful alone
# The deposit covers about 23,000 reagents; below is a part drawn at random. 455 of all reagents (2%) were called active. 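Active includes both protection and sensitisation; some change values fall well beyond the stated -50 to +50 range.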 Entries without a mark were called inactive. Reagents against one gene are numbered here. Reagent sequences are not shown. The record does not give: the amount of reagent.
gene,reagent no.,two-siRNA summed score (-2 to +2),mean protection from cisplatin (shift in death) (%),"protection from cisplatin (shift in death), siRNA C (%)","protection from cisplatin (shift in death), siRNA D (%)"
BEST3,1,0,-5.5,7.6,-18.6
BEST3,2,0,3.1,5.6,0.7
ANKRD37,1,0,-4.1,-8.8,0.6
NIF3L1,1,0,-8,2.5,-18.6
ADGRG4,1,0,-1.5,3.1,-6.1
JARID2,1,1,14.8,33.1,-3.4
MOB1A,1,0,5.7,3.4,8
SOCS2,1,0,-5.9,-9,-2.8
SMUG1,1,-1,-18.1,-21.8,-14.3
ABCA11P,1,1,7.5,25.2,-10.2
POLR3A,1,1,5.2,8,2.3
LOC402110,1,1,13.6,15.3,12
LOC401913,1,1,12.2,13.1,11.2
OR6C3,1,1,10.5,7.4,13.5
TAOK3,1,0,1.9,14.7,-10.8
MPDZ,1,0,-6.3,-11.2,-1.4
PROSER2,1,0,6.1,9.2,2.9
LOC390411,1,1,20.1,21.2,18.9
LOC401220 (retired record),1,0,7.8,12,3.7
DYNLT2B,1,0,-1.4,5.4,-8.1
SCYL2,1,1,4.5,-12,21
PDCD5,1,-1,-5.5,0.7,-11.7
SLC9B1,1,1,-0.7,10,-11.5

A run of entries taken from the entries so far, for reference:
gene,reagent no.,two-siRNA summed score (-2 to +2),mean protection from cisplatin (shift in death) (%),"protection from cisplatin (shift in death), siRNA C (%)","protection from cisplatin (shift in death), siRNA D (%)"
LOC402110,1,1,13.6,15.3,12
LOC401913,1,1,12.2,13.1,11.2
